Measured values: US6783949B1, “Processes for determining whether a test substance contains lipases or lipase inhibitors” (Aventis Pharma Deutschland GmbH, priority 1999, dated 2004)
Some of these results come from one statement about several compounds together.

Experiment: Substrate stability towards detergents and solvents (extinction at 550 nm)
Type: physicochemical
Conditions: 1% agent

CO [Methanol]
Decrease of the extinction (amount of substrate): at most 20%
